For 1 substance, binding results are on record in article PMC10307627.

Amino acid sequences for entries named in this document (tags omitted). Residues count along the entry.
UniProt Q03431, residues 27-593: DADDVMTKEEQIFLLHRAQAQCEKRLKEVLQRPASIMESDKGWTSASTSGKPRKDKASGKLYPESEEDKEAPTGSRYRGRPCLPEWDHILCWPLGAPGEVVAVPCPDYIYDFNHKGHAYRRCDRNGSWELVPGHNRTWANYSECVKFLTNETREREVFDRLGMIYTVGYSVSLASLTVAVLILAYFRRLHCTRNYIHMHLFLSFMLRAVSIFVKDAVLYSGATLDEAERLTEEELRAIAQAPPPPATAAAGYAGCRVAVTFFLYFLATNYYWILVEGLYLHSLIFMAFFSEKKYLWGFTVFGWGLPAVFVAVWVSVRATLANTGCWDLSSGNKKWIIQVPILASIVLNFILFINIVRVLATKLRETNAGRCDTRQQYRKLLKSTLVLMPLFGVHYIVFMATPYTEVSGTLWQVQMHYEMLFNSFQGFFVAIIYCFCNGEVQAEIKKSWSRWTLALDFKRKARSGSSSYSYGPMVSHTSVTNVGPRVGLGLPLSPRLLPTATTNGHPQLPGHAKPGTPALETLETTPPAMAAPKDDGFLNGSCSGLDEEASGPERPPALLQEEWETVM
UniProt P32121: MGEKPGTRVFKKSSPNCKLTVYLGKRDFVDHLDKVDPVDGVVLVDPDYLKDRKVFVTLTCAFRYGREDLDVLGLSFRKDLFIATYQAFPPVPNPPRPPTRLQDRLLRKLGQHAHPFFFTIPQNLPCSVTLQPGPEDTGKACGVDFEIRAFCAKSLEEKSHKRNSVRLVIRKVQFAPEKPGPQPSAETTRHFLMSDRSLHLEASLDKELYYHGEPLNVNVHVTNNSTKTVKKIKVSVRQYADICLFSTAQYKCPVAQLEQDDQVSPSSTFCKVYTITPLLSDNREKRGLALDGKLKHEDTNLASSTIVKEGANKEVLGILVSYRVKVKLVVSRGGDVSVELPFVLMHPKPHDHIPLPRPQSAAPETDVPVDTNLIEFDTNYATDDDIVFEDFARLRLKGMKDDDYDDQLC

This test deals with C-terminal small BiT-fused PTH1R (PTH1R-Sm) (human) (UniProt Q03431). In words: split reporter; NanoBiT β-arrestin recruitment assay in transfected cells, Lg-β-arrestin 1 or 2 with PTH1R-Sm, stimulation with PTH, room temperature, luminescence 13–15 min after ligand.

These are yes or no findings as the source states them, for the method shown. In cells and extracts the contact can be indirect. Some binding calls cover weakened binding; strength is not graded here.

With “N-terminal large BiT-fused β-arrestin 2 (Lg-β-arrestin 2) (from UniProt P32121 1-409)”, the binding entry is recorded as “binds”.
